{"source": "PubChem BioAssay AID1159578 (Peter MacCallum Cancer Centre, 2015)", "screen": "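siRNA pools altering how lymphatic endothelial cells close a scratch wound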 (primary screen)", "system": "human lymphatic endothelial cells", "knock-down reagent": "siRNA pool against human genes, 40 nM", "timing": "48 h after transfection", "detection": "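High-content imaging of dye-stained cells in a scratch assay measures filled wound area and nuclei per well; duplicate means given as ratio to mock and robust z-score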", "scale": "migration robust z-score: higher = faster migration into the scratch; nuclei per well: higher = more cells in the well", "active means": "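Pools averaging fewer than 3300 nuclei are never called; remaining pools count as changed when migration robust z lies outside -2 to 2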", "calls": "active = migration changed; inactive = no migration change, or too few cells", "note": "Here is an unselected part of about 18,000 reagents tested. Over the whole deposit, about 1,030 (5.7%) were called active. 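Inactive calls also include pools with fewer than 3300 nuclei, whose migration was not assessed.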 Raw values vary from plate to plate and are shown uncorrected. Entries without a mark were called inactive. Not all columns of the deposit are shown."}
{"Target gene": "MS4A8", "migration robust z-score": -0.1, "migration class with cell-count check": "migration z between -2 and 2; enough cells", "nuclei per well, duplicate mean": 3655}
{"Target gene": "NIF3L1", "migration robust z-score": "-2.68 (active)", "migration class with cell-count check": "migration z below -2; enough cells", "nuclei per well, duplicate mean": 5136}
{"Target gene": "ANAPC15", "migration robust z-score": -0.64, "migration class with cell-count check": "migration z between -2 and 2; enough cells", "nuclei per well, duplicate mean": 6098}
{"Target gene": "TMEM47", "migration robust z-score": 1.74, "migration class with cell-count check": "migration z between -2 and 2; enough cells", "nuclei per well, duplicate mean": 6214}
{"Target gene": "BAG5", "migration robust z-score": 0.75, "migration class with cell-count check": "migration z between -2 and 2; enough cells", "nuclei per well, duplicate mean": 6506}
{"Target gene": "DNAJB13", "migration robust z-score": 0.98, "migration class with cell-count check": "migration z between -2 and 2; enough cells", "nuclei per well, duplicate mean": 5422}
{"Target gene": "APBB2", "migration robust z-score": 0.66, "migration class with cell-count check": "migration z between -2 and 2; enough cells", "nuclei per well, duplicate mean": 5860}
{"Target gene": "RCOR3", "migration robust z-score": -0.67, "migration class with cell-count check": "migration z between -2 and 2; enough cells", "nuclei per well, duplicate mean": 5471}
{"Target gene": "MTARC2", "migration robust z-score": -0.56, "migration class with cell-count check": "migration z between -2 and 2; enough cells", "nuclei per well, duplicate mean": 4419}
{"Target gene": "DSG3", "migration robust z-score": 0.6, "migration class with cell-count check": "migration z between -2 and 2; enough cells", "nuclei per well, duplicate mean": 6207}
{"Target gene": "ZNF398", "migration robust z-score": -0.44, "migration class with cell-count check": "migration z between -2 and 2; enough cells", "nuclei per well, duplicate mean": 4393}
{"Target gene": "TACC2", "migration robust z-score": -0.39, "migration class with cell-count check": "migration z between -2 and 2; enough cells", "nuclei per well, duplicate mean": 5482}
{"Target gene": "SNX27", "migration robust z-score": -1.44, "migration class with cell-count check": "migration z between -2 and 2; enough cells", "nuclei per well, duplicate mean": 4595}

Active calls, of those listed so far:
{"Target gene": "NIF3L1", "migration robust z-score": "-2.68 (active)", "migration class with cell-count check": "migration z below -2; enough cells", "nuclei per well, duplicate mean": 5136}

The results go on:
{"Target gene": "C22orf15", "migration robust z-score": -1.01, "migration class with cell-count check": "migration z between -2 and 2; enough cells", "nuclei per well, duplicate mean": 4752}
{"Target gene": "MUSK", "migration robust z-score": -5.04, "migration class with cell-count check": "under 3300 nuclei; migration not judged", "nuclei per well, duplicate mean": 2374}
{"Target gene": "NOL10", "migration robust z-score": 0.66, "migration class with cell-count check": "migration z between -2 and 2; enough cells", "nuclei per well, duplicate mean": 7380}
{"Target gene": "AZI2", "migration robust z-score": -0.74, "migration class with cell-count check": "migration z between -2 and 2; enough cells", "nuclei per well, duplicate mean": 6842}
{"Target gene": "ELMO1", "migration robust z-score": -1.13, "migration class with cell-count check": "migration z between -2 and 2; enough cells", "nuclei per well, duplicate mean": 4950}
{"Target gene": "HIF1AN", "migration robust z-score": 0.08, "migration class with cell-count check": "migration z between -2 and 2; enough cells", "nuclei per well, duplicate mean": 4198}
{"Target gene": "TUBG1", "migration robust z-score": -0.86, "migration class with cell-count check": "migration z between -2 and 2; enough cells", "nuclei per well, duplicate mean": 4630}
{"Target gene": "MSN", "migration robust z-score": -0.3, "migration class with cell-count check": "migration z between -2 and 2; enough cells", "nuclei per well, duplicate mean": 6486}
{"Target gene": "CA14", "migration robust z-score": -0.64, "migration class with cell-count check": "migration z between -2 and 2; enough cells", "nuclei per well, duplicate mean": 5459}
{"Target gene": "GRAMD1B", "migration robust z-score": -0.87, "migration class with cell-count check": "migration z between -2 and 2; enough cells", "nuclei per well, duplicate mean": 3480}
{"Target gene": "FER1L5", "migration robust z-score": -0.48, "migration class with cell-count check": "migration z between -2 and 2; enough cells", "nuclei per well, duplicate mean": 5715}
{"Target gene": "SCAMP5", "migration robust z-score": 0.91, "migration class with cell-count check": "migration z between -2 and 2; enough cells", "nuclei per well, duplicate mean": 5654}
{"Target gene": "OR51B4", "migration robust z-score": -0.76, "migration class with cell-count check": "migration z between -2 and 2; enough cells", "nuclei per well, duplicate mean": 6798}
{"Target gene": "PRSS12", "migration robust z-score": -0.34, "migration class with cell-count check": "migration z between -2 and 2; enough cells", "nuclei per well, duplicate mean": 5268}
